Source: the supplement of paper PMC8728848
Some of the results follow.

Tests used:
Test in all cases: glycan array binding signal (z-score within array); higher = stronger binding
Settings in all cases: glycan notation: IUPAC condensed, linker removed
Gal6S(b1-4)Glc6S = target: Gal6S(b1-4)Glc6S
Outline: (§1)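 Glycan array data came from 3228 arrays in the Consortium for Functional Glycomics database, and only arrays with an available protein sequence were kept. Glycan names were put into IUPAC-condensed notation, and columns mapping to the same glycan were averaged. The binding signal is a within-array Z-score, averaged across arrays of one protein sequence run at different concentrations or buffers and across linkers. A negative Z-score can be read as non-binding.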

Gal6S(b1-4)GlcNAc = target: Gal6S(b1-4)GlcNAc
Outline: as §1

Gal6S(b1-4)GlcNAc6S = target: Gal6S(b1-4)GlcNAc6S
Outline: as §1

GalNAc(a1-3)Gal = target: GalNAc(a1-3)Gal
Outline: as §1

GalNAc(a1-3)GalNAc = target: GalNAc(a1-3)GalNAc
Outline: as §1

[1] = target: GalNAc(a1-3)GalNAc(b1-3)Gal(a1-4)Gal(b1-4)Glc
Outline: as §1

[2] = target: GalNAc(a1-3)GalNAc(b1-3)Gal(a1-4)Gal(b1-4)GlcNAc
Outline: as §1

GalNAc(b1-3)Gal = target: GalNAc(b1-3)Gal
Outline: as §1

[3] = target: GalNAc(b1-3)Gal(a1-4)Gal(b1-4)GlcNAc
Outline: as §1

[4] = target: GalNAc(b1-3)Gal(a1-4)Gal(b1-4)GlcNAc(b1-3)Gal(b1-4)Glc
Outline: as §1

[5] = target: GalNAc(b1-3)Gal(a1-6)Gal(b1-4)Glc
Outline: as §1

GalNAc(b1-3)GalNAc = target: GalNAc(b1-3)GalNAc
Outline: as §1

GalNAc(b1-3)GlcNAc = target: GalNAc(b1-3)GlcNAc
Outline: as §1

GalNAc(b1-4)Gal(b1-4)Glc = target: GalNAc(b1-4)Gal(b1-4)Glc
Outline: as §1

GalNAc(b1-4)GlcNAc = target: GalNAc(b1-4)GlcNAc
Outline: as §1

[6] = target: GalNAc(b1-4)GlcNAc(b1-2)Man
Outline: as §1

[7] = target: GalNAc(b1-4)GlcNAc(b1-2)Man(a1-3)[GalNAc(b1-4)GlcNAc(b1-2)Man(a1-6)]Man(b1-4)GlcNAc(b1-4)GlcNAc
Outline: as §1

[8] = target: GalNAc(b1-4)GlcNAc(b1-3)GalNAc(b1-4)GlcNAc
Outline: as §1

GalNAc(b1-4)GlcNAc6S = target: GalNAc(b1-4)GlcNAc6S
Outline: as §1

GalNAc(b1-6)GalNAc = target: GalNAc(b1-6)GalNAc
Outline: as §1

GalNAc3S(b1-4)GlcNAc = target: GalNAc3S(b1-4)GlcNAc
Outline: as §1

GalNAc3S(b1-4)GlcNAc3S = target: GalNAc3S(b1-4)GlcNAc3S
Outline: as §1

[9] = target: GalNAc3S(b1-4)[Fuc(a1-3)]GlcNAc
Outline: as §1

GalNAc4S6S(b1-4)GlcNAc = target: GalNAc4S6S(b1-4)GlcNAc
Outline: as §1

GalNAc6S(b1-4)GlcNAc = target: GalNAc6S(b1-4)GlcNAc
Outline: as §1

Glc(a1-4)Glc = target: Glc(a1-4)Glc
Outline: as §1

[10] = target: Glc(a1-4)Glc(a1-4)Glc(a1-4)Glc
Outline: as §1

Glc(a1-6)Glc(a1-6)Glc = target: Glc(a1-6)Glc(a1-6)Glc
Outline: as §1

[11] = target: Glc(a1-6)Glc(a1-6)Glc(a1-6)Glc
Outline: as §1

Glc(b1-4)Glc = target: Glc(b1-4)Glc
Outline: as §1

Glc(b1-6)Glc = target: Glc(b1-6)Glc
Outline: as §1

GlcA(b1-3)Gal = target: GlcA(b1-3)Gal
Outline: as §1

GlcA(b1-3)GlcNAc = target: GlcA(b1-3)GlcNAc
Outline: as §1

GlcA(b1-6)Gal = target: GlcA(b1-6)Gal
Outline: as §1

[12] = target: GlcA3S(b1-3)Gal(b1-4)GlcNAc(b1-2)Man
Outline: as §1

[13] = target: GlcA3S(b1-3)Gal(b1-4)GlcNAc(b1-3)Gal(b1-4)Glc
Outline: as §1

[14] = target: GlcNAc(a1-3)Gal(b1-4)GlcNAc
Outline: as §1

[15] = target: GlcNAc(a1-4)Gal(b1-3)GlcNAc
Outline: as §1

[16] = target: GlcNAc(a1-4)Gal(b1-4)GalNAc
Outline: as §1

[17] = target: GlcNAc(a1-4)Gal(b1-4)GlcNAc
Outline: as §1

[18] = target: GlcNAc(a1-4)Gal(b1-4)GlcNAc(b1-3)Gal(b1-4)Glc
Outline: as §1

[19] = target: GlcNAc(a1-4)Gal(b1-4)GlcNAc(b1-3)Gal(b1-4)GlcNAc
Outline: as §1

[20] = target: GlcNAc(a1-4)Gal(b1-4)GlcNAc(b1-3)Gal(b1-4)GlcNAc(b1-3)Gal(b1-4)GlcNAc
Outline: as §1

[21] = target: GlcNAc(a1-4)Gal(b1-4)GlcNAc(b1-3)Gal(b1-4)[Fuc(a1-3)]GlcNAc(b1-3)Gal(b1-4)[Fuc(a1-3)]GlcNAc
Outline: as §1

[22] = target: GlcNAc(a1-6)Gal(b1-4)GlcNAc
Outline: as §1

B1: PhypaEULS3 (Physcomitrella patens) (protein)
chain: MLPVRLHCKADPNFNLAAVPGQGPVMVPFSPNDDFQVWYKDVTMSTRVKDETGSSAFSLINKATGQALRHAPEDLAQCLLADYDSNALDQTVLWTMSEDMGQGYCCIRLASQITRNLDVFRGDKKSGGVKEGSPVITFAWKKQDNQIWKMITAILEQKLISEEDLNSAVDHHHHHH
B1 was tested, and the “glycan array binding signal (z-score)” value (Gal6S(b1-4)Glc6S) was -0.328, the “glycan array binding signal (z-score)” value (Gal6S(b1-4)GlcNAc) was 1.1 and the “glycan array binding signal (z-score)” value (Gal6S(b1-4)GlcNAc6S) was 1.27. For the same binder, the “glycan array binding signal (z-score)” value (GalNAc(a1-3)Gal) was -0.459, the “glycan array binding signal (z-score)” value (GalNAc(a1-3)GalNAc) was -0.427 and the “glycan array binding signal (z-score)” value [1] was 0.614. The “glycan array binding signal (z-score)” value [2] was 0.114, the “glycan array binding signal (z-score)” value (GalNAc(b1-3)Gal) was -0.103 and the “glycan array binding signal (z-score)” value [3] was -1.89. For the same binder, the “glycan array binding signal (z-score)” value [4] was -0.317, the “glycan array binding signal (z-score)” value [5] was -0.536 and the “glycan array binding signal (z-score)” value (GalNAc(b1-3)GalNAc) was 0.246. The “glycan array binding signal (z-score)” value (GalNAc(b1-3)GlcNAc) was -0.207, the “glycan array binding signal (z-score)” value (GalNAc(b1-4)Gal(b1-4)Glc) was 0.319 and the “glycan array binding signal (z-score)” value (GalNAc(b1-4)GlcNAc) was -1.91. The “glycan array binding signal (z-score)” value [6] was -0.619, the “glycan array binding signal (z-score)” value [7] was 0.448 and the “glycan array binding signal (z-score)” value [8] was -0.097. For the same binder, the “glycan array binding signal (z-score)” value (GalNAc(b1-4)GlcNAc6S) was 1.29, the “glycan array binding signal (z-score)” value (GalNAc(b1-6)GalNAc) was 0.575 and the “glycan array binding signal (z-score)” value (GalNAc3S(b1-4)GlcNAc) was -0.059. The “glycan array binding signal (z-score)” value (GalNAc3S(b1-4)GlcNAc3S) was 2.12, the “glycan array binding signal (z-score)” value [9] was -0.804 and the “glycan array binding signal (z-score)” value (GalNAc4S6S(b1-4)GlcNAc) was 2.6. The “glycan array binding signal (z-score)” value (GalNAc6S(b1-4)GlcNAc) was 1.13, the “glycan array binding signal (z-score)” value (Glc(a1-4)Glc) was -0.811 and the “glycan array binding signal (z-score)” value [10] was -1.9. The “glycan array binding signal (z-score)” value (Glc(a1-6)Glc(a1-6)Glc) was -0.255, the “glycan array binding signal (z-score)” value [11] was 0.847 and the “glycan array binding signal (z-score)” value (Glc(b1-4)Glc) was 0.754. The “glycan array binding signal (z-score)” value (Glc(b1-6)Glc) was -1.38, the “glycan array binding signal (z-score)” value (GlcA(b1-3)Gal) was -1.49 and the “glycan array binding signal (z-score)” value (GlcA(b1-3)GlcNAc) was 0.133. For the same binder, the “glycan array binding signal (z-score)” value (GlcA(b1-6)Gal) was -2.24, the “glycan array binding signal (z-score)” value [12] was 0.278 and the “glycan array binding signal (z-score)” value [13] was -0.623. For the same binder, the “glycan array binding signal (z-score)” value [14] was -0.249, the “glycan array binding signal (z-score)” value [15] was -0.942 and the “glycan array binding signal (z-score)” value [16] was -1.15. For the same binder, the “glycan array binding signal (z-score)” value [17] was 0.207, the “glycan array binding signal (z-score)” value [18] was 0.185 and the “glycan array binding signal (z-score)” value [19] was 0.005. For the same binder, the “glycan array binding signal (z-score)” value [20] was -0.022, the “glycan array binding signal (z-score)” value [21] was -1.64 and the “glycan array binding signal (z-score)” value [22] was -0.941.
